# Patent publication EP0007525A1, “2-(4-Aminopiperidino)-3.4-dihydroquinoline derivatives, processes for their preparation, pharmaceutical compositions containing them and their use” (HOECHST AKTIENGESELLSCHAFT, priority 1978, dated 1980)
# At least one structure is not confirmed: it was looked up by name or label, or the drawing left a doubt.
# Test system: mit Strophantin vergiftete Hund
# Assay: Antiarrhythmic effect in the strophanthin-poisoned dog (ventricular extrasystoles, ECG)
# Type: in vivo
# Settings: dog poisoned with K-Strophanthin i.v. infusion until frequent ventricular extrasystoles; 1 mg/kg intravenous; active = arrhythmia completely abolished
# Source text: 2) Zur Prüfung auf antiarrythmische Wirkung wird der mit Strophantin vergiftete Hund verwendet (Methode: Laszlo Szekeres, Institute of Pharmacology, University Medical School of Szeged, Hungary, Methods for Evaluating Antiarrhytmic Agents" in Methods in Pharmacology I, New York 1971, Herausgeber A. Schwartz).
smiles,measurement,value
"CCCC(=O)NC1CCN(C2=Nc3ccccc3CC2)CC1 [Beispiel 34, 2-(4-Butyryl-amino-1-piperidyl)-3,4-dihydrochinolin]",antiarrythmische Wirkung (Beseitigung der Rhythmusstörungen),Rhythmusstörungen völlig zu beseitigen vermochte
